According to publication PMC10449923:
These are yes or no findings as the source states them, for the method shown. In cells and extracts the contact can be indirect. Binding can be weak; no strength is given.

Sequences of proteins named here, by UniProt entry; tags and fusion partners are left off. A change or cut given only in a name is not applied to a line headed by its entry.
UniProt P35222: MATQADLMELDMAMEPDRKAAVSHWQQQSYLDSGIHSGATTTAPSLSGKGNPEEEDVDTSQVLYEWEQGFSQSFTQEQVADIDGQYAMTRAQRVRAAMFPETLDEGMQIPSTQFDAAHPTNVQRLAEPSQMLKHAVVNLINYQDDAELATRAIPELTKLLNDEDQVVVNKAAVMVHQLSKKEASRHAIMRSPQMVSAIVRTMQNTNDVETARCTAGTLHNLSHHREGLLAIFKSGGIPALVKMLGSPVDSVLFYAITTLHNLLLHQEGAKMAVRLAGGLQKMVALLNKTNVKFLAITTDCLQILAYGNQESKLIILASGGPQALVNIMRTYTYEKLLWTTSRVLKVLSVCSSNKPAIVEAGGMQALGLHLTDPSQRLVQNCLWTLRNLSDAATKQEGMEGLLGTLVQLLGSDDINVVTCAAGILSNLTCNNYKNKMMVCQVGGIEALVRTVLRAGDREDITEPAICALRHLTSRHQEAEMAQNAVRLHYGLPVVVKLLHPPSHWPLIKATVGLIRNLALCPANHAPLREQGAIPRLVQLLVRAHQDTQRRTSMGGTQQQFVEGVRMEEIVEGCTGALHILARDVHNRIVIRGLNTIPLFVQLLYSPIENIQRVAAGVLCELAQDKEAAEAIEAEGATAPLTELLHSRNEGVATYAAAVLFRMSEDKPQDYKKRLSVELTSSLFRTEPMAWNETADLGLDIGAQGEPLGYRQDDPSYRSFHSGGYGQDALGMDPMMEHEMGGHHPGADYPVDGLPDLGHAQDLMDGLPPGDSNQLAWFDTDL

Molecular target: catalytic domain of TET2 (Tet2CD) (UniProt Q6N021)
Assay: co-IP; about 1 mg of cell lysate (SW480 and SW620 cells overexpressing Tet2CD or Tet2CD-mt), antibody (normally anti-Flag) overnight at 4 °C, Protein A/G magnetic beads, immunoblotting; lysis buffer 50 mM Tris pH 8.0, 150 mM NaCl, 10% glycerol, 0.5% NP40

binding: binds
Substance: β-catenin (encoded by the CTNNB1 gene) (from UniProt P35222 1-781)
